Assay: Plasma pharmacokinetics after sciatic nerve block in rats
Assay type: in vivo, rat
Details: Lidocaine/Levo-Bupi (35 mM/10 mM), n = 10
Experimental: In brief, rats were anesthetized by inhaling 1%–2% isoflurane mixed with oxygen through an inhouse-made mask. Then, the rats were placed at right lateral position and inserted vertically using a 23-gauge injector at the middle of the line from the greater trochanter to ischial tuberosity ([Binshtok et al., 2007]; [Zhang et al., 2017b]). Once the bone has been contacted, 200 μl drug was injected.
According to the China Food and Drug Administration guidance for preclinical pharmacokinetic study, there should be more than three sampling points adjacent to the time to reach the maximum concentration. In our preliminary experiment, the time to maximum concentration of Levo-Bupi, as a single drug in the rat sciatic nerve block, was 0.5 h. Thus, to obtain an accurate value of the maximum concentration of Levo-Bupi, we added another time point at 0.33 h. […]
The parameters of pharmacokinetics were analyzed by DAS® (Drug and Statistics, version 3.2.1, China) using noncompartmental model. In this study, the following pharmacokinetic parameters were calculated: the value of maximum concentration (Cmax) and the time to acquire (Tmax); the elimination half-life (t1/2); area under curve (AUC) from zero to the last time point (AUC0–last) and from zero to infinity (AUC0–∞); clearance (CL/F), and volume of distribution (Vd/F).

effect on the absorption of Levo-Bupi: did not have a similar effect
SMILES: CCN(CC)CC(=O)Nc1c(C)cccc1C [lidocaine]
